The campaign covered roughly 52,000 sequences. About 210 (0.4%) were called active.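 How the source made its calls: active means gene whose silencing raises cell survival under the drug, median off-target-corrected z-score across its silencing RNAs 2 or more; inactive means the rest.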 This is one part of the list.

Data on 103 sequences can be found in PubChem BioAssay AID1347423 (Functional Genomics Laboratory (NCATS/FGL), 2020).

This assay in a line: Resistance to Poly (ADP-Ribose) Polymerase inhibitor: Gene Identification via Genome-wide siRNA Screen. The following applies: mouse BRCA2 R2336H ES cells, olaparib, CellTiter-Glo viability; hits give high values. The method, boiled down: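 Mouse BRCA2 R2336H ES cells were reverse-transfected with siRNA (20 nM final), treated at 48 h with 500 nM olaparib, and read by CellTiter-Glo after 72 h. Scores: MAD-based z per siRNA, median per gene, seed off-target correction.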
For GGCCUUUUUUCUAUAUCUATT against Galnt3, the z-score was inactive: 1.24.
On to GGCAUCUCUAUCAAGUUGCTT against Rps17, for which the z-score is inactive: -2.26.
The value for “GUUGUGCAAUCAACAAGGUTT against 1110006G06Rik” was inactive: 1.54; that for GGGAGCUGCUAAAAUAAACTT against Mtcp1 was inactive: -0.326; that for GGAGAACAUGUUGAAGUAUTT against Atp8a1 was inactive: 0.629.
With GGUCGAGUGCAAGUUGAAGTT against Taf13, the z-score is inactive: 0.614.
The value for GGCAUUGAAUUAAAGAUACTT against Myct1 was inactive: -0.0513; that for GGCCAAAGUCCACACAAGUTT against Asahl was inactive: -1.12; that for “GCUCACAUUGAGUGGUUGGTT against 1200014J11Rik” was inactive: -0.795.
Take GCGGGUUAUUAACAUAUUUTT against Dlgh1: the z-score is inactive: 0.646.
For GGAGGCAGAGAAGAUGAAATT against Pacsin3, the z-score was inactive: 1.96.
The value for GGUAUUUCACUGGUUACGUTT against B3galt1 was inactive: -0.64.
The value for CCUGUACUGAACUACUUGATT against Kctd5 was inactive: 0.352.
Turning to GGGAAAACCAUACAAAAUATT against Olfr228, the z-score is inactive: -0.201.
Consider “GACAGUUAACCUUUUAAGATT against 1810008A14Rik”, for which the z-score was inactive: 0.559.
Regarding GGAUCUUAUUACUUCAAUGTT against AW547365, the z-score is inactive: -0.411.
With “CCAGUGGAUGAGGUCAUUGTT against 1110061N23Rik”, the z-score is inactive: -2.37.
Turning to “GCUUACCAAAAGGAUAUCCTT against 1110060O18Rik”, the z-score was inactive: 0.372.
The value for GGUUUUAGACAUUCAGAACTT against Eif2c4 was inactive: 0.711; that for CCGUGGAUUAUUUUCAACGTT against Hcn1 was inactive: -0.206.
GGACUUCUACGACUUCAAGTT against Gpx7: the z-score was inactive: 0.125.
As for “GGAAGUACAGAAUUUUGAATT against 2010005O13Rik”, the z-score is inactive: -0.388.
The value for CCAACAAAUUCAAUCAGGCTT against Nrip3 was inactive: -0.621; that for GGGAUAUGUGACUAUGUUATT against Slc5a7 was inactive: 2.63; that for GGCUUUAAUGAAAUUAUGGTT against Gm592 was inactive: -0.345.
The value for CCUCCUACAUGUUCACAUUTT against Olfr1367 was inactive: 1.47; that for GGUGUCUCUCUAUGAUUUATT against Otoa was inactive: 1.68.
As for GGUAUAAAAGGUUGCCAAATT against Efnb2, the z-score is inactive: 0.508.
The value for CCCGAGAAUGACUAUGAAGTT against Grid2ip was inactive: 0.165.
The value for “GCAUCAUUAGUGGUGUAACTT against 6530402N02Rik” was inactive: 1.22; that for GGGCCUUUGAAAACACCCUTT against AI841987 was inactive: 0.485.
The value for “GGUUCAACAUGAAAAUGAUTT against B230217C06Rik” was inactive: -0.0916; that for GGCCUUGGGAAGGAAAGAGTT against Mospd1 was inactive: -1.74.
Take GGGCAAGCCGGUUUCAUUUTT against Col16a1: the z-score was inactive: -1.
The value for GGUCAGAUGUUCUGGAAAATT against Ctsj was inactive: -0.836; that for GGAGAAUGACACCAGGUCUTT against Arc was inactive: -0.361; that for GGUGGAGAAAUCUGCUAAUTT against Lta4h was inactive: -0.489.
The value for GGAUGAAAGAGCUAUUCUUTT against Cnot8 was inactive: 3.22; that for GGUCAAGUUCACCAAGAUATT against Aldh1a3 was inactive: 1.01; that for GGUUGAGUUUCAGUGCAUCTT against Btbd5 was inactive: -1.26.
With GGCAAACUCAUCCAUGUGCTT against Fabp3, the z-score was inactive: -0.4.
On to GGAUCCAGAUACUCCCAAGTT against Camp, for which the z-score was inactive: -0.0866.
The value for GCAAAUAAGAUUGCGUCUGTT against MGC107514 was inactive: 2.48; that for GGAUUUGUAAAUUACCUGGTT against Clecsf8 was inactive: -0.376.
The value for GGACAUGAUGAGUGACCUGTT against Elmo1 was inactive: -0.984.
GCCAAUCUGAAAGGAUAUUTT against Tpst2: the z-score was inactive: -0.805.
As for “GGUUUCUGUUUUGUCACACTT against 9330176C04Rik”, the z-score is inactive: 0.369.
Take “GCUCUUCCGCACUUUCAUUTT against 1700012L04Rik”: the z-score is inactive: 0.668.
In the case of CCAUCUGAUUUCUUUCCAGTT against MGC78233, the z-score is inactive: -0.642.
The value for GGUGAAGAGCAUCAUAACCTT against Fabp4 was inactive: 0.199.
The value for “CCCAGAGGUAAAGAAGGUCTT against 1700018L24Rik” was inactive: 0.316; that for CGUGCAUCCCUAUAUCCUATT against Panx2 was inactive: 0.682; that for GGUAAAUGAGAAAAACCUCTT against Gda was inactive: -0.0873.
The value for GGGCUUGGCAUACUCCUAATT against Ebf4 was inactive: -0.125; that for GGAUAACCAACAAGGUUUUTT against Mgst1 was inactive: 2.04.
For CGGCACUAGGAAGCUUUUATT against Inpp5a, the z-score was inactive: -1.26.
Regarding GCCAGGUCCUCAAAUGAAATT against Wbscr24, the z-score was inactive: 0.399.
The value for GGAUGUGGUUUUACAUCUGTT against Lrp11 was inactive: 0.56; that for AUGGACAGGACUUAGAUUCTT against LOC435023 was inactive: -0.328; that for GGAGGUACCAUGCUAUGCATT against Igf2r was inactive: 1.27.
With “GCAAGAUGAGAAGGAUUUUTT against 6430544H17Rik”, the z-score is inactive: 1.05.
The value for GGUCAUAGAGACAGACUACTT against Lcn12 was inactive: -2.06; that for “CCAAGUCGGACUUACGGUUTT against 1600025D17Rik” was inactive: -0.231; that for CCCACAAUGCUGCUAUUAUTT against Gmfb was inactive: -1.92.
The value for GCUCUUAGAGAUUUGUUUGTT against Usp14 was inactive: -0.185; that for “GGAUUGCCUCACGGUUGCUTT against 9130416N05Rik” was inactive: -1.79; that for GGGUUAUCUAUGCAAAUCCTT against Odc1 was inactive: 0.574.
The value for GCUGAUUCAAAACCAGGCATT against Nme2 was inactive: 0.681; that for CCAUGAGCAUAGUUAUCAGTT against Ankib1 was inactive: 0.645; that for “CGACAACAUUCGGAGAGGATT against 2700063A19Rik” was inactive: -0.914.
“GGAGAAUGAAGAUGAAUGUTT against 4930424G05Rik”: the z-score is inactive: -0.0136.
Turning to “GGGAAAGGCAUUUAUUUUCTT against 1810030J14Rik”, the z-score was inactive: 0.404.
The value for “GGAACCCUGAACUUGAACGTT against 9530025L16Rik” was inactive: -0.307; that for GGGACAACAUUUUCUUGCCTT against Ms4a6b was inactive: 0.447; that for GGAGAGGAACAGGAACAGATT against Ankrd9 was inactive: -0.431.
The value for “GGUGGACUGGAUCUGAAUGTT against 5830433M19Rik” was inactive: 1.09; that for GGAAGCCAAAGAGAAACAATT against Ighmbp2 was inactive: -1.08; that for “CCCAUAGACAUUUAUGUAATT against D17H6S56E-5” was inactive: 0.0893.
The value for GGCUUUGAAACAUAAGAACTT against Zfp472 was inactive: 0.702; that for CGGCAGCUUGAAAUUACUGTT against Stx3 was inactive: 1.85; that for GCGAUUACUACUUGAAACUTT against Fa2h was inactive: -0.348.
On to GCUAAUAGGGUGCUUUAAUTT against Rab33b, for which the z-score was inactive: 0.418.
Take GGGAGACAUCCCGAUACAGTT against Mlf2: the z-score was inactive: -0.941.
The value for “GAUAUAAGGACUCUUUGAATT against 4732486J07Rik” was inactive: -0.212.
In the case of GCGGCACACCCUUAUUACATT against Zfp162, the z-score was inactive: -1.15.
The value for CCCUGCUUACGAUUGAUAGTT against Ccr1l1 was inactive: -2.4; that for GGAAGAACAGAGGCAGAAGTT against Trpv3 was inactive: -1.15; that for GCGUGAAUCCGAUCCAACUTT against Spag5 was inactive: -1.36.
The value for GCGACACGUCUCCAGAUGATT against Pldn was inactive: -1.55; that for GGUUCAGAUCCACAGCCAGTT against Accn1 was inactive: 0.543; that for GGAGAUACAGAUGAAUGAATT against Apg16l was inactive: -1.33.
The value for GCCAGUGGUGUUUGCAUAGTT against Scrn1 was inactive: -1.07; that for GGAGAAUUGCCCAUCUUUGTT against Ankrd32 was inactive: -0.208; that for GCCUUCAGGACGAUUUAUUTT against Pla2g7 was inactive: 0.423.
With “GGAAGGAAGGAAUAAAACUTT against D930001I22Rik”, the z-score is inactive: -0.647.
Consider CCGGAGAUAUAUCAAUAUUTT against Pcdhga3, for which the z-score is inactive: 0.409.
The value for GGGUGACAGUGAUAUCCAGTT against Mc1r was inactive: -0.664; that for “GCAAAAUUACCAGCUUACUTT against 5730589K01Rik” was inactive: 0.133; that for CCUGUCCAGGGUUUGACCATT against Man2c1 was inactive: 0.0847.
In the case of GGAUUUUCAUCGUGCUUUGTT against Apba2bp, the z-score is inactive: -0.319.
The value for “GCUUAUAAGAGAAAUGACUTT against 4921511C20Rik” was inactive: -1.15.
In the case of CGAGCUCCUUCAUAUUAAATT against Rapgef4, the z-score is inactive: 0.164.
For GGCAAGAAGUAGGAAGACUTT against Nucb2, the z-score was inactive: -1.92.
